# Whole data set: some 33,000 sequences, median “E-score (-0.5 to 0.5)” near -0.016, cut for the highest 2% near 0.3. The list shows a part of the results.
# Target: T1, Yer184c (UniProt P39961)
# T1 sequence: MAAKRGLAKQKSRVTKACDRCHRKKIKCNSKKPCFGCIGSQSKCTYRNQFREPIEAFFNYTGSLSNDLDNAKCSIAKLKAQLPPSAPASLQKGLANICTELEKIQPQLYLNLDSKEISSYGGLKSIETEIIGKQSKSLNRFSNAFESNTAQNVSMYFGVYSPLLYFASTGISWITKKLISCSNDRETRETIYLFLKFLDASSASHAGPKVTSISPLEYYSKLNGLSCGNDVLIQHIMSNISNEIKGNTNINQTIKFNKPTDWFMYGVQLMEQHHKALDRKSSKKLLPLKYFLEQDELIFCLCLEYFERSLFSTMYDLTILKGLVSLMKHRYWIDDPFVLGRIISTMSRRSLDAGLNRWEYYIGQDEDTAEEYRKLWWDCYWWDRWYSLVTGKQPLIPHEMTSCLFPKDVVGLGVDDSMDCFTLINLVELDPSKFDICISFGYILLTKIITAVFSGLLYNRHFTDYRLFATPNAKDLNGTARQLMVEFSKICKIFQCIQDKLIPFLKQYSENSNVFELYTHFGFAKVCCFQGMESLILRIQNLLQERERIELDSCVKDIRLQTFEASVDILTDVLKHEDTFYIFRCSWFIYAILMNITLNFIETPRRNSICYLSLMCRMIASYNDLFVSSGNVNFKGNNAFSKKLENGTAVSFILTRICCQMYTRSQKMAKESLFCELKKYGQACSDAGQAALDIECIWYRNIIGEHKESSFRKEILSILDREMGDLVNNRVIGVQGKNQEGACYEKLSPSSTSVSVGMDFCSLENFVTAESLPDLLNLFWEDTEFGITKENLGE
# Test: PBM E-score (8-mer binding enrichment) (E-score (-0.5 to 0.5)); higher = stronger / more preferred TF binding
# Conditions: protein concentration: 100 nM; construct: GST-full length
# How it was run: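 E-scores (a modified Wilcoxon-Mann-Whitney statistic) were assigned by the Universal PBM Analysis Suite to every ungapped eight-base word pooled with its reverse complement. The input came from universal all-10-mer Agilent arrays made double-stranded by primer extension and probed with GST-tagged yeast transcription factors at about 100-200 nM. Fluorescent anti-GST detected bound protein, and masliner normalised the scans.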
row,Sequence,PBM E-score
1,TATAATCA,0.198
2,CAGGACAC,-0.0491
3,AACAACCG,0.247
4,AAATATAT,0.305
5,TGCTGACA,-0.0689
6,CGCAAAAA,0.225
7,CAAGAATC,0.138
8,GCCAAGTA,-0.199
9,CGCTACTA,0.0983
10,ACATTGCG,-0.138
11,AACACCCA,-0.199
12,GCACGAAA,0.0777
13,GCGCTGTA,-0.115
14,ATTCGTGA,-0.0319
15,GAGTGCCA,-0.298
16,ATAGAGAT,0.0561
17,GCAGCCGA,0.221
18,ATCATATC,0.139
19,GACAATGA,-0.0278
20,AGAGAGAA,-0.111
21,AAAAGGCC,-0.0759
22,CTGATGGA,-0.14
23,CAATAAAA,0.0818
24,CCGGCTGC,0.331
25,AATCTCTG,-0.102

row,Sequence,PBM E-score
1,AAAGCTTT,0.237
2,AAAACAGT,0.197
3,ACAGCCCG,0.0446
4,ATAGTCTC,0.0321
5,AGTACGGA,0.158
6,ACTCAGAC,-0.00195
7,AGTCTGAA,-0.162
8,ACGCCTTG,-0.119
9,CCGTTATA,0.151
10,ACACAGAG,-0.0748
11,AGGACAAT,-0.0447
12,GATAGCAA,0.123
13,ATGCATTA,0.0989
14,ACTGAGCC,0.142
15,CTGTAGAA,0.0848
16,AGAGGAAA,0.191
17,GAGTCAGA,-0.0741
18,ACTAACAG,0.045
19,AACTCCGA,0.325
20,AAAAACGG,0.183
21,CCAATTAA,0.0256
22,AGTGTTAA,0.213
23,ACAATCCG,0.193
24,GGTAAAAC,0.05
25,ATGGAGGA,0.1

row,Sequence,PBM E-score
1,GAGGCCTA,-0.155
2,AGGGCGCA,-0.225
3,CTGAGCGA,0.02
4,CACGTATC,-0.167
5,CAGGGTCA,-0.288
6,CAGAGAGA,-0.123
7,ATAACTGG,-0.0953
8,GAAGGAGA,-0.0715
9,AAATCCAA,-0.0273
10,GGAGAACA,-0.0373
11,CAAACCTG,-0.11
12,CTAGCAAG,-0.206
13,ACCACCAC,-0.159
14,AGCTAAGG,-0.178
15,AGAAATTC,0.077
16,AAATCGCA,0.0999
17,GCAGATTA,0.0406
18,CAGTGCCG,0.22
19,AATTATTC,0.181
20,CGGGGTAG,-0.126
21,CAAGGTGG,-0.0765
22,CACAACGA,0.115
23,CCTTGTGA,-0.0408
24,CGCTGCCC,-0.121
25,CGGTTTCA,0.137

row,Sequence,PBM E-score
1,GACTAGAA,-0.023
2,ATCGGCGG,0.246
3,CTTGGGTA,-0.087
4,CGGACCCC,0.0811
5,ACATCAGC,-0.0768
6,GACTCACC,-0.216
7,GCCACTCA,-0.0368
8,TATAGGAA,-0.0613
9,CTTCGAAC,0.192
10,GTATCAGA,0.0461
11,GGACTGCA,-0.141
12,CAGTTGTC,-0.00115
13,AGCCTGCG,-0.175
14,ATGTCAAT,0.122
15,GTCCCCAC,-0.359
16,GAGTGGTA,-0.0683
17,AATCGAAC,-0.112
18,ACGTGCCT,-0.058
19,ATTTGGGA,0.0419
20,AAACTAAT,0.3
21,GTTACAAC,0.126
22,ATCTTCGG,0.35
23,ATCCCATC,-0.19
24,ATCAAAGA,0.0474
25,GATTCGGC,0.364

row,Sequence,PBM E-score
1,CCCTAGAG,-0.0187
2,GCCTATCC,-0.156
3,TAACGACA,-0.0182
4,GTAGCTCA,0.0156
5,AGGATGGA,0.0163
6,AGTACCCC,-0.267
7,ATTGCAAT,0.126
8,ATCGACAA,0.185
9,GGATAACA,0.0419
10,ACGTTCAA,0.0105
11,AGCATGTC,-0.125
12,ATATTAGG,0.0437
13,CAACATCC,0.0105
14,CGACAAGC,-0.166
15,CGCTGTGC,-0.0524
16,CCGGGAGC,0.162
17,CCAAAGTA,-0.0504
18,AGGCTGAG,-0.173
19,CAAACCAC,-0.145
20,ACATCAAT,0.0812
21,GAAGTTAA,0.0852
22,AAATACAT,-0.0718
23,ACAACTGC,0.0629
24,AGGGACCT,-0.155
25,ATGATCTG,0.075

row,Sequence,PBM E-score
1,CCTGATCG,-0.0704
2,TCCTGCCA,-0.22
3,GAGCTAAA,0.0217
4,AAATTGAT,0.159
5,ATTTGTGA,0.0908
6,ATGGAAAA,0.158
7,ACCTCCAA,-0.232
8,ACGGGTCA,-0.191
9,AATAACAC,-0.111
10,GACCAAGC,-0.0879
11,AAACCCAG,-0.0251
12,ACATCAAC,0.224
13,CCACCAAG,-0.287
14,GGACAAAC,0.0117
15,ATCAATGC,0.0054
16,AACATCCA,-0.123
17,ATAGCCAG,-0.172
18,GAAAAGGA,0.136
19,CGTTAATA,0.13
20,ATTAAGTA,0.144
21,GGGACAAC,-0.0988
22,CGGTTAGC,0.0658
23,CAATCAGG,0.0527
24,TATGACAA,0.219
25,GGGAAAAC,-0.00619

row,Sequence,PBM E-score
1,CAAGCTTA,-0.0128
2,GACTGTCC,-0.107
3,GCCGGCCC,0.343
4,CGTAAGTC,-0.00193
5,ACCATTCG,-0.0973
6,ATTGCAAA,0.197
7,AATCTGAG,-0.0818
8,CTTTAAAA,0.182
9,GTGCCCAA,-0.0746
10,GAGTATAC,0.0205
11,CAATACGA,0.0856
12,ACGGTCTG,0.0726
13,CAGCTACA,-0.17
14,GCCTTGCC,-0.0712
15,GACTAAGC,0.0141
16,GCACCGGC,0.234
17,TACAAGTA,-0.0668
18,CGTGCCGA,0.289
19,ATCCTACG,-0.149
20,AGGGCGTA,-0.155
21,GGGTACGA,-0.0885
22,ATCTACAT,0.124
